Here are results for three molecules from paper PMC3799622.

Chains of the proteins cited; added tags and fusions are not shown.
UniProt P0C0S5: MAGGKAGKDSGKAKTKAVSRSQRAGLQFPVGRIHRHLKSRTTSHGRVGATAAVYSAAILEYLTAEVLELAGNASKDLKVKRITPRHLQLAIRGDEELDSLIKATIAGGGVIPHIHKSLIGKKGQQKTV
UniProt Q96KQ7: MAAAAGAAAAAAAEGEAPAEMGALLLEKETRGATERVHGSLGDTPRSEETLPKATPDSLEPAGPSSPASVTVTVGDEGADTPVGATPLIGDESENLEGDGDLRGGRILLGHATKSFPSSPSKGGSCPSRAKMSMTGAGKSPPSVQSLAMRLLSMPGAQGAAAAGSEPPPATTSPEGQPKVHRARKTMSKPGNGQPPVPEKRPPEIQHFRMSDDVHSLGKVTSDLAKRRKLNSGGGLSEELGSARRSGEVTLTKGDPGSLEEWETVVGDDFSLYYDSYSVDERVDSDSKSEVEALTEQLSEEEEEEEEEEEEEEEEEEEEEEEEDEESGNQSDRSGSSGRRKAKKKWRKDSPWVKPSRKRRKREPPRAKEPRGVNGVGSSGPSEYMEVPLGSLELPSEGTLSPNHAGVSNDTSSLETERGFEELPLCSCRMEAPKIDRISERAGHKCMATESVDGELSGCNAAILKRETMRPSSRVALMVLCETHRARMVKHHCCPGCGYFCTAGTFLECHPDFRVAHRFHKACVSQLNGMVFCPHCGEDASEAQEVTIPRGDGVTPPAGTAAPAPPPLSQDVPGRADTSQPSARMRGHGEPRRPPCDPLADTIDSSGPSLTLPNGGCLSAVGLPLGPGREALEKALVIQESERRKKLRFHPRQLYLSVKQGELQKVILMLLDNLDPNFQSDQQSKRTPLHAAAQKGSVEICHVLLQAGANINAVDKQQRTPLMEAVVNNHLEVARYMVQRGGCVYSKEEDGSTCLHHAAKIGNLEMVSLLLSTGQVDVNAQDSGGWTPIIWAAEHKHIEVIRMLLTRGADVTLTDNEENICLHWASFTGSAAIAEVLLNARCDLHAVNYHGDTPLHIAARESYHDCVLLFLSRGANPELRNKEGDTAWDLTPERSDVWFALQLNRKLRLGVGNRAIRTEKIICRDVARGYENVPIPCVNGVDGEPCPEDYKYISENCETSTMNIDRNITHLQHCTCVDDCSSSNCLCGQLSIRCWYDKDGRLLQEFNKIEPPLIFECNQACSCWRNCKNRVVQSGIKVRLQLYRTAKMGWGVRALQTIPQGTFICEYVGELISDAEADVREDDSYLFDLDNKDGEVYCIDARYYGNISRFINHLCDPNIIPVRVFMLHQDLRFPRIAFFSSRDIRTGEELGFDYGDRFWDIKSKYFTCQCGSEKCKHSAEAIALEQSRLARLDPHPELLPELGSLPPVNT

These are yes or no findings as the source states them, for the method shown. For part of these data: Binding seen in cells or lysates may run through a third protein. Some binding calls cover weakened binding; strength is not graded here. For part of these data: Tags and fused reporters may be left off the sequences shown.

Assay [1] deals with SPBP as used in the yeast two-hybrid screen (unpublished results) (human) (UniProt Q9UGU0). As to the kind of experiment: two-hybrid; yeast two-hybrid screen with SPBP; unpublished results.
The target of assay [2] is GST-H2AZ (UniProt P0C0S5). In words: pull-down; GST-histones expressed and purified from E. coli incubated with in vitro translated 35S-labeled GFP fusions; SDS-PAGE, PhosphorImager; only the target purified.

As to “chromatin modulator G9a (from UniProt Q96KQ7 1-1210)”, in assay [1], the binding result is “binds”.

B1: GFP-SPBP (1551-1666) (domain or fragment, UniProt Q9UGU0 1551-1666)
chain: KKQQQPPPPPPQPPQIPEGSADGEPKPKKQRQRRERRKPGAQPRKRKTKQAVPIVEPQEPEIKLKYATQPLDKTDAKNKSFYPYIHVVNKCELGAVCTIINAEEEEQTKLVRGRKG
modifications: 35S label
Take B1: the binding result in assay [2] is reported as “binds”.

B2: GFP-RAI1(1523-1627) (domain or fragment, UniProt Q7Z5J4 1523-1627)
chain: QKQPGHTNYSSYSKRKRLTRGRAKNTTSSPCKGRAKRRRQQQVLPLDPAEPEIRLKYISSCKRLRSDSRTPAFSPFVRVEKRDAFTTICTVVNSPGDAPKPHRKP
modifications: 35S label
On to B2, for which the binding result in assay [2] is recorded as “binds”.
